PubChem BioAssay AID540276 (National Center for Advancing Translational Sciences (NCATS), 2011)
About 5,400 (1.8%) of roughly 300,000 compounds were called active. This list was built around the results that the source calls inconclusive (neither active nor inactive); the mix of calls is not that of the screen. Calls follow the shape of the full dose curve; tested in HEK293 cells. A potency beside an inconclusive call is a rough fit, not a confirmed value.

Test: qHTS for inhibitors of binding or entry into cells for Marburg Virus
Conditions: Marburg virus pseudotyped entry inhibition, cell reporter; activity change, negative = inhibition: at 37.8 µM (top of the series) unless noted
% is scaled to controls: 0 for no effect and ±100 for the full control effect; potency is read from the fitted curve at half-maximal effect.

SMILES | activity change, negative = inhibition | Potency
O=C(Nc1cccc(C(F)(F)F)c1)c1cc2nc(-c3ccc4c(c3)OCO4)cc(C(F)(F)F)n2n1 | inactive: 0.0262% [at 46.1 µM] | 
Cc1ccc(OCC(=O)O)c(-n2nc3ccccc3n2)c1 | inactive: 4.04% | 
N#Cc1ccc(-c2ccco2)nc1SCC(=O)c1ccc(Cl)cc1 |  | inconclusive: 2.82 µM [inhibitor, full curve, poor fit]
Fc1ccc2[nH]c(-c3cccs3)cc2c1 | inactive: -1.32% [at 46.1 µM] | 
Cc1ccc(/C=N/n2c(-c3ccco3)n[nH]c2=S)s1 |  | inconclusive: 1.12 µM [activator, full curve]
O=C(CN1C(=O)NC2(CCCC2)C1=O)N1CCN(S(=O)(=O)c2ccccc2)CC1 |  | inconclusive: 3.16 µM [inhibitor, single point]
COc1cc(-c2nc3ccc4ccccc4c3c3c2CCC3)cc(OC)c1O |  | inconclusive: 14.1 µM [inhibitor, single point]
CCOc1ccc(NC(=O)C2CCCN(S(=O)(=O)c3c(C)noc3/C=C/N(C)C)C2)cc1 (stereo not drawn) |  | inconclusive: 35.5 µM [inhibitor, single point]
CCOC(=O)C1=C(CN2CCN(c3ccc(OC)cc3)CC2)NC(=O)NC1c1ccc(Cl)cc1 (stereo not drawn) |  | inconclusive: 35.5 µM [inhibitor, single point]
Cc1csc(NC(=O)CSc2[nH]c(=O)ncc2C)n1 | inactive: 6.67% | 
COc1ccccc1OC1OC2COC(c3ccco3)OC2C(O)C1NC(C)=O (stereo not drawn) |  | inconclusive: 10 µM [activator, partial curve]
Cc1cccc(C)c1NC(=S)N(Cc1cccs1)C1CCCC1 |  | inconclusive: 0.251 µM [inhibitor, full curve, poor fit]
COc1ccc(-c2cn(-c3ccc(C)c(Cl)c3)c(=S)[nH]2)cc1OC |  | inconclusive: 20 µM [inhibitor, single point]
COc1cccc(CN(C(=O)Cc2c[nH]c3ccccc23)C(C(=O)NC2CCCCC2)c2cccs2)c1 (stereo not drawn) | inactive: 10.1% | 
O=C(c1cc(-c2ccncc2)nc2ccccc12)N1CCN(c2ccccn2)CC1 |  | inconclusive: 2.06 µM [inhibitor, full curve, poor fit]
CC(=O)N1CCC(=NNC(=O)c2cccs2)CC1 |  | inconclusive: 6.31 µM [activator, full curve, poor fit]
CCc1ccccc1NC(=O)c1nnn(Cc2ccc(Cl)cc2)c1N | inactive: 3.29% [at 46.1 µM] | 
COc1ccc(NC(=O)Nc2cccc([N+](=O)[O-])c2)cc1Cl |  | inconclusive: 0.794 µM [inhibitor, full curve, poor fit]
O=C(/C=C/c1ccccc1)OCC(=O)c1c[nH]c2ccccc12 | inactive: -17.5% [at 46.1 µM] | 
COc1ccc(NCN2C(=O)C3C4C=CC(C4)C3C2=O)cc1 (stereo not drawn) |  | inconclusive: 0.092 µM [inhibitor, full curve, poor fit]
COc1ccc(NC(=O)CN(C)S(=O)(=O)c2ccc(Br)s2)cc1OC | inactive: 10.4% [at 46.1 µM] | 
O=C(CCNS(=O)(=O)c1ccc(Br)cc1)NNC(=O)C1COc2ccccc2O1 (stereo not drawn) | inactive: 3.14% [at 46.1 µM] | 
COc1ccc(CCNC(=O)c2ccc(Cn3c(=O)c4ccccc4n(Cc4cccc(C)c4)c3=O)cc2)cc1OC | inactive: -1.07% [at 46.1 µM] | 

SMILES | activity change, negative = inhibition | Potency
COc1cccc(NC(=O)c2nn(C)cc2Br)c1 |  | inconclusive: 1.26 µM [activator, single point]
CCn1cnc2c(=O)oc3ccc(S(=O)(=O)Nc4ccc(OC)cc4)cc3c21 | inactive: 4.85% [at 46.1 µM] | 
N#Cc1c(N2CCN(C(=O)c3ccccc3Cl)CC2)nc(-c2ccccc2)c2c1CCCC2 |  | inconclusive: 15.8 µM [inhibitor, single point]
Cc1[nH][nH]c(=O)c1C(c1c(C)[nH][nH]c1=O)c1cn(C)c2ccccc12 | inactive: -16% [at 46.1 µM] | 
Cc1ccc(Cn2nnnc2CN2CCC(O)(c3ccc(F)cc3)CC2)cc1 | inactive: -2.1% | 
O=C(Nc1nnc(C2CC2)o1)c1ccc(S(=O)(=O)N2CCCCC2)cc1 |  | inactive
Cc1cc(Br)cc2c(C(=O)NCC3CCCO3)cc(-c3ccccc3)nc12 (stereo not drawn) | inactive: 19.8% | 
COCCCNC(=O)CSC1=Nc2ccccc2C2=NC(Cc3c[nH]c4ccccc34)C(=O)N12 (stereo not drawn) |  | inconclusive: 1 µM [inhibitor, single point]
Cc1ccc(CN2CC(C(=O)Nc3ccc(S(=O)(=O)Nc4cc(C)nc(C)n4)cc3)CC2=O)cc1 (stereo not drawn) |  | inconclusive: 0.794 µM [inhibitor, single point]
CC(C)COc1ccc(-c2nn(-c3ccccc3)cc2C(=O)Nc2nccs2)cc1 |  | inconclusive: 23.1 µM [inhibitor, single point]
C=CCn1c(/N=C/c2ccc3c(c2)OCO3)nc2ccccc21 |  | inconclusive: 5.17 µM [inhibitor, partial curve, poor fit]
Cc1ccc(S(=O)(=O)C2C(=O)N(C)C3(C)CC2c2ccccc2O3)cc1C (stereo not drawn) |  | inconclusive: 35.5 µM [activator, single point]
Cc1cc(/C=N/NC(N)=S)c(C)n1-c1ccc(Br)cc1 |  | inconclusive: 25.1 µM [inhibitor, single point]
COc1ccc(N2CCN(C3CCCCC3NS(=O)(=O)c3ccccc3)CC2)cc1 (stereo not drawn) |  | inconclusive: 2.51 µM [inhibitor, full curve, poor fit]
COC(=O)c1c(NC(=O)CN2CCC3(O)CCCCC3C2c2ccccc2OC)sc(C)c1C (stereo not drawn) |  | inconclusive: 29.1 µM [inhibitor, single point]
CCOC(=O)NN1C(=O)c2ccccc2NC1c1ccc(N(C)C)cc1 (stereo not drawn) | inactive: 16.1% | 
COc1ccc(C(=O)Nc2nnc(C(C)C)s2)cc1OC |  | inconclusive: 8.91 µM [activator, partial curve, poor fit]
O=[N+]([O-])c1ccccc1OCCCN1CCOCC1 |  | inconclusive: 5.8 µM [activator, partial curve]
CN(C)c1ccc(/C=C2/SC(=O)N(CCN=C3NS(=O)(=O)c4ccccc43)C2=O)cc1 | inactive: 19.8% | 
O=C(c1ccc(Cl)c(S(=O)(=O)N2CCCC2)c1)N1CCN(c2ccccc2)CC1 |  | inconclusive: 1 µM [inhibitor, partial curve, poor fit]
Cc1cc(C)cc(NC(=O)Nc2nnc(N(C)C3CCCCC3)s2)c1 |  | inconclusive: 2.82 µM [inhibitor, partial curve, poor fit]
Cc1ccc(/C=N/N2CCN(Cc3ccccc3)CC2)cc1 |  | inconclusive: 11.2 µM [activator, single point]
O=C(CCC(=O)c1cccs1)OCc1nc2ccccc2s1 | inactive: 2.35% | 

SMILES | activity change, negative = inhibition | Potency
COc1cccc(CN2CCNC(=O)C2CC(=O)NCc2cc(C(C)C)no2)c1 (stereo not drawn) |  | inconclusive: 5.62 µM [activator, partial curve]
O=C(COc1ccccc1F)NNC(=O)c1ccc2c(=O)n3c(nc2c1)CCC3 | inactive: -1.57% | 
NNC(=O)CN1C(c2ccc(Br)cc2)=Nc2ccc(Br)cc2C1c1ccccc1 (stereo not drawn) |  | inconclusive: 17.8 µM [inhibitor, partial curve, poor fit]
COc1ccc(-c2noc(CN(C(C)C)S(=O)(=O)c3ccc(Br)cc3)n2)cc1 | inactive: -11.7% [at 46.1 µM] | 
CCC(=O)Nc1ccc(NC(=S)NC(=O)/C=C/c2ccccc2)cc1 |  | inconclusive: 0.282 µM [inhibitor, partial curve, poor fit]
Cc1ccsc1C1Nc2ccccc2C(=O)N1O (stereo not drawn) |  | inconclusive: 6.51 µM [activator, single point]
NC(=O)CSc1nnc([C@@H](N)Cc2c[nH]c3ccccc23)o1 |  | inconclusive: 0.0183 µM [activator, full curve, poor fit]
CCCNC(=O)c1ccccc1NC(=O)c1ccccc1N(C)S(=O)(=O)c1ccc(C)cc1 |  | inconclusive: 14.1 µM [inhibitor, partial curve, poor fit]
CCSc1nnc(-c2cnn(-c3ccccc3)c2-n2cccc2)n1C |  | inconclusive: 20 µM [activator, single point]
Cc1c(Cl)cccc1NC(=S)NNS(=O)(=O)c1ccc([N+](=O)[O-])cc1 | inactive: 9.26% | 
CCOC(=O)CN1C(=O)S/C(=C/c2cc(C)n(-c3ccccn3)c2C)C1=O | inactive: 6.88% [at 46.1 µM] | 
COc1ccc(NS(=O)(=O)c2cccc(C(=O)N3CCN(Cc4ccc5c(c4)OCO5)CC3)c2)cc1 |  | inconclusive: 14.1 µM [inhibitor, single point]
O=C(NCc1cccc(Cl)c1)NC(=O)c1csc([N+](=O)[O-])c1 | inactive: -0.213% | 
COc1ccc(S(=O)(=O)N2CCOCC2)cc1C(=O)Nc1cc(C)on1 |  | inconclusive: 0.562 µM [activator, partial curve, poor fit]
Nc1c(C(=O)Nc2ccccc2F)sc2nc(-c3ccco3)ccc12 |  | inconclusive: 18.3 µM [inhibitor, single point]
O=C(NCCCN1CCOCC1)c1ccc2c(c1)N(Cc1ccccc1F)C(=O)c1ccccc1S2=O (stereo not drawn) |  | inconclusive: 3.98 µM [inhibitor, partial curve, poor fit]
O=C(Oc1ccc(C(=S)N2CCOCC2)cc1Br)c1ccccc1F |  | inconclusive: 1.78 µM [inhibitor, partial curve, poor fit]
O=[N+]([O-])c1ccc(O)c(/C=N/Nc2ccc(Cl)nn2)c1 |  | active: 0.126 µM
CC(C(=O)Nc1ccccc1-c1ccccc1)N1CCN(C(=O)c2ccccc2)CC1 (stereo not drawn) |  | inconclusive: 5.62 µM [activator, single point]
Cc1ccc(C)c(NC(=O)c2cnc3n(c2=O)CCS3)c1 |  | inconclusive: 8.91 µM [activator, partial curve, poor fit]
O=C(NC1CCN(c2ncccn2)CC1)c1c(F)cccc1F |  | inconclusive: 0.891 µM [inhibitor, full curve, poor fit]
CN1CCCN(Cc2nc(-c3ccc(Cl)cc3)no2)CC1 | inactive: -4.77% [at 46.1 µM] | 
